Experimental data taken from the supplement of paper PMC7666118.
The list shows a part of the results.

Chains of the proteins cited; added tags and fusions are not shown. Lines headed by an entry give the natural chain unless they say otherwise; changes in a name come on top.
UniProt P51784: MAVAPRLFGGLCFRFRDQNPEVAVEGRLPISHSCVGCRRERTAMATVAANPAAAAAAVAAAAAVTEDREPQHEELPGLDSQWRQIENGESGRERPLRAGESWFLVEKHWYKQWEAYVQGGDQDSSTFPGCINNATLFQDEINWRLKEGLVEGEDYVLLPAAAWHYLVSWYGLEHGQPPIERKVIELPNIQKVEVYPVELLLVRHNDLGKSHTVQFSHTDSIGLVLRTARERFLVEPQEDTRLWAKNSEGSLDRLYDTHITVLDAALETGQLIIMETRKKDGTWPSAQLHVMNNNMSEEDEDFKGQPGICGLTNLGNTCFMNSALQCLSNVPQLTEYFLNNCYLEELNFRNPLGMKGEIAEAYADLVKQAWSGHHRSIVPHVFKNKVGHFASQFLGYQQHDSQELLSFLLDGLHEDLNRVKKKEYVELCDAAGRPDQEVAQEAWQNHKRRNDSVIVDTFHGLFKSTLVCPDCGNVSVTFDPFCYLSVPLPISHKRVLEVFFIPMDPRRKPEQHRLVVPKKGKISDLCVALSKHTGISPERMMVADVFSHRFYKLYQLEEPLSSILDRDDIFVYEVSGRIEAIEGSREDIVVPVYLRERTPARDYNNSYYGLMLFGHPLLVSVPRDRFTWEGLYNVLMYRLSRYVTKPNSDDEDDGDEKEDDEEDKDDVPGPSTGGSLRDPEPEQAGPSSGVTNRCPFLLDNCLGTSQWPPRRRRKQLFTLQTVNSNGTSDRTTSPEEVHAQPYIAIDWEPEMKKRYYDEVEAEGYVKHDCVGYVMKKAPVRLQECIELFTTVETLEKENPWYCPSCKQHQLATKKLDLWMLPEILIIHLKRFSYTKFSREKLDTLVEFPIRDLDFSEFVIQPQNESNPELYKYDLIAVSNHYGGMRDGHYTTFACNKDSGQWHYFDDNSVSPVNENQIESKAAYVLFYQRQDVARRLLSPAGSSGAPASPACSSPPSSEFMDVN
UniProt Q8N806: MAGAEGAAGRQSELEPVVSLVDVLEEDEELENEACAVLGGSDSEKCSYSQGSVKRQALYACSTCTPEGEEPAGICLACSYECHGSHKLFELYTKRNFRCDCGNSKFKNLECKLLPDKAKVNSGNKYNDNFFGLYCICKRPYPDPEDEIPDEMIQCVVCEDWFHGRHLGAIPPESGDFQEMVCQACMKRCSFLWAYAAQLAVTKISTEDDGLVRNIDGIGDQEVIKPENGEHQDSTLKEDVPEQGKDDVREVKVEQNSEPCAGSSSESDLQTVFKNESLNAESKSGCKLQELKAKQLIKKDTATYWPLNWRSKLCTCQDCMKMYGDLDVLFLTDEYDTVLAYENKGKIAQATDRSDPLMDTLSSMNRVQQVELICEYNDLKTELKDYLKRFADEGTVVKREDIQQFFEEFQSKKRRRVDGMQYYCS
UniProt O14949: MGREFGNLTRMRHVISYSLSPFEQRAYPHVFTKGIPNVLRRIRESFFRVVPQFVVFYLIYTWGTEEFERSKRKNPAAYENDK
UniProt O14933: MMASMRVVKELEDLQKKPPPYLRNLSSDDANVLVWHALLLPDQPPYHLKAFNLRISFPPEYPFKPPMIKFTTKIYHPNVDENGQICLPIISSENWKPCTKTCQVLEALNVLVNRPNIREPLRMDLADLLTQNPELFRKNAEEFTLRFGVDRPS
UniProt Q8IYM9: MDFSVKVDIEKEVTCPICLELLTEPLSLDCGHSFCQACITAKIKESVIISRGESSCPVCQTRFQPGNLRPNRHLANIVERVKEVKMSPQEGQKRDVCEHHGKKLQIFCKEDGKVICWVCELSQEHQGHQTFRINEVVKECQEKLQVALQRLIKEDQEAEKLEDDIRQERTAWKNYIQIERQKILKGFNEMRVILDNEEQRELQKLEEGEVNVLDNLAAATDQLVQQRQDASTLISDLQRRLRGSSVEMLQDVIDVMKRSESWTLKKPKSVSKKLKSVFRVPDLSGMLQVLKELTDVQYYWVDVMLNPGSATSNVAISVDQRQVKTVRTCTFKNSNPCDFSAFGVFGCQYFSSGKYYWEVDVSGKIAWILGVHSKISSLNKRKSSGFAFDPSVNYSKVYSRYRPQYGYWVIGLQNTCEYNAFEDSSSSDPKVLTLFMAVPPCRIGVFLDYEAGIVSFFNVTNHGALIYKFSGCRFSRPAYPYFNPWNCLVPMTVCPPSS
UniProt Q9H832: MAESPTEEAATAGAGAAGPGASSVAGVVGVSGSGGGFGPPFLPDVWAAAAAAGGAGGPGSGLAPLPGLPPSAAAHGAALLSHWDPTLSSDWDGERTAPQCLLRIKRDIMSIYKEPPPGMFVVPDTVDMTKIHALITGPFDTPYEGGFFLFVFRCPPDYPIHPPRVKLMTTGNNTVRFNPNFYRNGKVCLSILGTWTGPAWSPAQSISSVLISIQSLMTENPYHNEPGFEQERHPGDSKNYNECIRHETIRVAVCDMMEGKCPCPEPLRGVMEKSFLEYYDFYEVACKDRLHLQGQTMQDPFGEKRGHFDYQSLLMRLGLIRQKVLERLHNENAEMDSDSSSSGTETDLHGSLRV
UniProt O60287: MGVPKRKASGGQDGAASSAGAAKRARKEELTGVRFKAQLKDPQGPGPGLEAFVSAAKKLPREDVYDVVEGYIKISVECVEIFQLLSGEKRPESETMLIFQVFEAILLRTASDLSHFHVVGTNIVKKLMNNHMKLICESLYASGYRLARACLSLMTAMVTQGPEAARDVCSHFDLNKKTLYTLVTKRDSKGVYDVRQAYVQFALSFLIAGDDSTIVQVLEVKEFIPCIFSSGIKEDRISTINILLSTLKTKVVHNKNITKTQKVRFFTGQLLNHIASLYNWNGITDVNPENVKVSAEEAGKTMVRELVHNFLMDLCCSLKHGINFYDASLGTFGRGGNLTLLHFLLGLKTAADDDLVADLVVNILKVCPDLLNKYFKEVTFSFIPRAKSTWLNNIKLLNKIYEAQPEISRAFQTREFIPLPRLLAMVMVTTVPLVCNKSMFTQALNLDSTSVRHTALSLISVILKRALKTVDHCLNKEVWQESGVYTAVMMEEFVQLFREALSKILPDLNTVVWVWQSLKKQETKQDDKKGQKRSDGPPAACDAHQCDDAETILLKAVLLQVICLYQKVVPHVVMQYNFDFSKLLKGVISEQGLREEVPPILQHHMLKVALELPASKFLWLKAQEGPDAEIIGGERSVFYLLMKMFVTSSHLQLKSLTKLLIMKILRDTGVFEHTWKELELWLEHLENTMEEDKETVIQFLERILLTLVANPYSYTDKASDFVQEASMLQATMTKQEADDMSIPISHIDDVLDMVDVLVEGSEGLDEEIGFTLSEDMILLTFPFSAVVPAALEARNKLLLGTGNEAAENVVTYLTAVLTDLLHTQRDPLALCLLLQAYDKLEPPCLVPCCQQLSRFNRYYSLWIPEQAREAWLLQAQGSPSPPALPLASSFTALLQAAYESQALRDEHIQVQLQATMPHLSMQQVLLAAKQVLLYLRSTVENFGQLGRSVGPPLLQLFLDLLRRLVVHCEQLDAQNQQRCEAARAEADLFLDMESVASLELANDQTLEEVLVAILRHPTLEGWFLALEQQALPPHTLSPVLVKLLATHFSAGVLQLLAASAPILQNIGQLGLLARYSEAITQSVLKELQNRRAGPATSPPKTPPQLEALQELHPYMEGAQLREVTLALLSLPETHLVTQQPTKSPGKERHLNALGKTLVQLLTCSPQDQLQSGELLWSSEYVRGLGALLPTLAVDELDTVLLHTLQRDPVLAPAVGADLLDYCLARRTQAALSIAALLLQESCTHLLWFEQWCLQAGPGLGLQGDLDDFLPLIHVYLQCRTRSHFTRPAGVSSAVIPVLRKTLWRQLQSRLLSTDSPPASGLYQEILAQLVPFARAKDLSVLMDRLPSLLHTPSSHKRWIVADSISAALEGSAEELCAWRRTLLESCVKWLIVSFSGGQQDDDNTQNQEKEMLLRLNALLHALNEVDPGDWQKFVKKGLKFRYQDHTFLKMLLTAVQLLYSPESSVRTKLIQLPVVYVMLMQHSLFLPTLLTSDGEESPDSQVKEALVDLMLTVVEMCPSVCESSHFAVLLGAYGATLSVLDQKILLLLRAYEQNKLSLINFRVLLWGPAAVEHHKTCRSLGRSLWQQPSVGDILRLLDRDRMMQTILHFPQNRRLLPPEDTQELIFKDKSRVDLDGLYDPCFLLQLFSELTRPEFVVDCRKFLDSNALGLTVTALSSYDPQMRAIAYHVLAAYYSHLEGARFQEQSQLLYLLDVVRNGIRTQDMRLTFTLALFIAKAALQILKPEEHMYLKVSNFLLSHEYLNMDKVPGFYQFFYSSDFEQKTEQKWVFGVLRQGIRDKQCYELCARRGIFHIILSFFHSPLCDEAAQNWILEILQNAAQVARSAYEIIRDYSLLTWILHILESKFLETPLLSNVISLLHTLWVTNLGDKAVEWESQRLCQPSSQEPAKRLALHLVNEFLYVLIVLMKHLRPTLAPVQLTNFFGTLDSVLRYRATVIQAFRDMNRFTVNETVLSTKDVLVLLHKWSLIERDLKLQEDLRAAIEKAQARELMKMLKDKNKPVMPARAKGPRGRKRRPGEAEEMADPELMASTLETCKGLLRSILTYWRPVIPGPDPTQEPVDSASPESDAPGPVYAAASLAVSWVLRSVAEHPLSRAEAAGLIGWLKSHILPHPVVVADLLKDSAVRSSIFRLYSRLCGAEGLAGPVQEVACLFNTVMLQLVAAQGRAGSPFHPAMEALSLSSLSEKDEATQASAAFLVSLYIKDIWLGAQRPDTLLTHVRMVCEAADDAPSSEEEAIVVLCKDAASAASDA
UniProt Q96Q11: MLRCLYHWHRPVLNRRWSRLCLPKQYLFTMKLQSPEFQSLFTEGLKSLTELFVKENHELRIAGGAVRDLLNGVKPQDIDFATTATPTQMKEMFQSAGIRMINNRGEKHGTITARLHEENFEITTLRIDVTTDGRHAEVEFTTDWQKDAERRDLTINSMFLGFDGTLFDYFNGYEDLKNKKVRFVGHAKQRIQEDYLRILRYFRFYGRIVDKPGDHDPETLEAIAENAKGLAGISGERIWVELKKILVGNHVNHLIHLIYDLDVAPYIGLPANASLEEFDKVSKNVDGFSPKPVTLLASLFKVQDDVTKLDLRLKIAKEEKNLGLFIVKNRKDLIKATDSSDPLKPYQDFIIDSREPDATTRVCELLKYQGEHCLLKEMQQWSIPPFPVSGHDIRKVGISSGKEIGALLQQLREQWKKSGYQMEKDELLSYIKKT
UniProt P07919: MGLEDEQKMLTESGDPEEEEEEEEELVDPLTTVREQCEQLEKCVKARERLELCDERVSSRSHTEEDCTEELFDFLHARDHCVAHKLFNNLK
UniProt Q8N2K1: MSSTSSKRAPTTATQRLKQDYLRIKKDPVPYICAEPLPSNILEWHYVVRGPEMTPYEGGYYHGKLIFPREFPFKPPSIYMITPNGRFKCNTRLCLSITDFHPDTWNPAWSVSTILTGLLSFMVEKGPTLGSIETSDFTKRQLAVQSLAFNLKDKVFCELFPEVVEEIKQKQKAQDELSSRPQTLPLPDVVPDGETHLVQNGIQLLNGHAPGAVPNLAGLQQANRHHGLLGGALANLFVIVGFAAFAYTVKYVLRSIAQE
UniProt Q9NVA1: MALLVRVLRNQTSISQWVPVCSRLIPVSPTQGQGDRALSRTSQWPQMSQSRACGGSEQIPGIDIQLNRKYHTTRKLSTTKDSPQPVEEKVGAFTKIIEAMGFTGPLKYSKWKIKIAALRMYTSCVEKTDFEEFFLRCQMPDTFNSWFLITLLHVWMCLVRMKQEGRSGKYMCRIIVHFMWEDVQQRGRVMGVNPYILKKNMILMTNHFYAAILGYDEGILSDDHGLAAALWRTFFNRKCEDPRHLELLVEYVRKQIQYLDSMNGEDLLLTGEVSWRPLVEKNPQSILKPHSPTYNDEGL
UniProt Q16881, whole entry: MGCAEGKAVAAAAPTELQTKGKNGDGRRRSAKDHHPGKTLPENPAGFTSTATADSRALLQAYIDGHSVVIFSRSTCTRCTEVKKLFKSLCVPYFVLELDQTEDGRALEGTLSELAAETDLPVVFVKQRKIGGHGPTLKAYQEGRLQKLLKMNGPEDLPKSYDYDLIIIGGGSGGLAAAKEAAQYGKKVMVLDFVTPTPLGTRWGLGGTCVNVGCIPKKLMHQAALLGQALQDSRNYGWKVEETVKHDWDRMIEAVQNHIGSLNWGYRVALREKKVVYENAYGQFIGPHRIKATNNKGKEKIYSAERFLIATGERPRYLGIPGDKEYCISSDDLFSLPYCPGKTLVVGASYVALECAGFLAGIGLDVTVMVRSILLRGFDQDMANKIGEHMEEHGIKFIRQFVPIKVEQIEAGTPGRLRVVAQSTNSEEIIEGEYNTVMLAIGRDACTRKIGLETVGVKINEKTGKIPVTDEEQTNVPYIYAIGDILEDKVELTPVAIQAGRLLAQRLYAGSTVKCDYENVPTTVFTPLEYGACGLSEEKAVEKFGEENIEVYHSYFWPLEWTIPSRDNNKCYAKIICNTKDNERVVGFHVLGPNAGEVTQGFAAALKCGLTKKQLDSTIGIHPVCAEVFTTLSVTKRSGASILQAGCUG

What follows are targets tested with COc1ccc(Cn2ccc3ccc(C(=O)NO)cc32)cc1 (assay: dose-dependent thermal stabilisation call (2D-TPP, DLPTP, 10% FDR) (binary (1 = stabilised)); higher = stabilised by the compound). Settings: system: HL-60 intact cells; concentration range 0.04-10 µM.
With USP11 (UniProt P51784) the “dose-dependent thermal stabilisation call” value was inactive: 0.
For USP4 (UniProt Q13107), the “dose-dependent thermal stabilisation call” value was inactive: 0.
For UBR7 (UniProt Q8N806), the “dose-dependent thermal stabilisation call” value was inactive: 0.
In the case of UNC84A (UniProt O94901), the “dose-dependent thermal stabilisation call” value is reported as inactive: 0.
For TUBE1 (UniProt Q9UJT0), the “dose-dependent thermal stabilisation call” value was inactive: 0.
UQCRQ (UniProt O14949) was tested, and the “dose-dependent thermal stabilisation call” value was inactive: 0.
For TSN (UniProt Q15631), the “dose-dependent thermal stabilisation call” value was inactive: 0.
With UBE2L6 (UniProt O14933) the “dose-dependent thermal stabilisation call” value was inactive: 0.
With UBXN7 (UniProt O94888) the “dose-dependent thermal stabilisation call” value was inactive: 0.
In the case of TRIM22 (UniProt Q8IYM9), the “dose-dependent thermal stabilisation call” value is reported as inactive: 0.
UBQLN4 (UniProt Q9NRR5) was tested, and the “dose-dependent thermal stabilisation call” value was inactive: 0.
TRPC4AP (UniProt Q8TEL6) was tested, and the “dose-dependent thermal stabilisation call” value was inactive: 0.
TSC1 (UniProt Q92574) was tested, and the “dose-dependent thermal stabilisation call” value was inactive: 0.
TTF2 (UniProt Q9UNY4) was tested, and the “dose-dependent thermal stabilisation call” value was inactive: 0.
UIMC1 (UniProt Q96RL1) was tested, and the “dose-dependent thermal stabilisation call” value was inactive: 0.
In the case of UBE2Z (UniProt Q9H832), the “dose-dependent thermal stabilisation call” value is reported as inactive: 0.
For URB1 (UniProt O60287), the “dose-dependent thermal stabilisation call” value was inactive: 0.
In the case of USP10 (UniProt Q14694), the “dose-dependent thermal stabilisation call” value is reported as inactive: 0.
In the case of TRNT1 (UniProt Q96Q11), the “dose-dependent thermal stabilisation call” value is reported as inactive: 0.
With TTC5 (UniProt Q8N0Z6) the “dose-dependent thermal stabilisation call” value was inactive: 0.
In the case of TRPV2 (UniProt Q9Y5S1), the “dose-dependent thermal stabilisation call” value is reported as inactive: 0.
With UQCRH (UniProt P07919) the “dose-dependent thermal stabilisation call” value was inactive: 0.
With UBE2J2 (UniProt Q8N2K1) the “dose-dependent thermal stabilisation call” value was inactive: 0.
In the case of UQCC (UniProt Q9NVA1), the “dose-dependent thermal stabilisation call” value is reported as inactive: 0.
For TXNRD1 (UniProt Q16881), the “dose-dependent thermal stabilisation call” value was inactive: 0.
TRIM26 (UniProt Q12899) was tested, and the “dose-dependent thermal stabilisation call” value was inactive: 0.
With UBAP1 (UniProt Q9NZ09) the “dose-dependent thermal stabilisation call” value was inactive: 0.
